Measurements as given in US8722690B2, “Mesoionic pesticides” (E I du Pont de Nemours and Company, priority 2009, dated 2014).
Where two headings read alike, the source gives them in different places. Some results were stated once for a whole list of compounds, not compound by compound. For at least one compound, name, drawing or mass did not settle the structure.

Columns and labels:
Format in all cases: in vivo
[1] = system: fall armyworm (Spodoptera frugiperda); experiment: Test B: control of fall armyworm on maize plant, foliar spray; details: very good to excellent levels of control efficacy
[2] = system: potato leafhopper (Empoasca fabae); details: 6 days, Soleil bean plant, very good to excellent levels of control efficacy
[3] = system: diamondback moth (Plutella xylostella); experiment: Test A: control of diamondback moth on radish plant, foliar spray; details: 6 days, very good to excellent levels of control efficacy
[4] = system: Western Flower Thrips (Frankliniella occidentalis); experiment: Test G: control of Western Flower Thrips on Soleil bean plant, contact and/or systemic; details: 7 days, very good to excellent levels of control efficacy

`COc1ccc(C(F)(F)F)cc1-c1c([O-])[n+](Cc2cnc(Cl)s2)c2c(C)cccn2c1=O` [Compound 121] was tested, and the “control efficacy: feeding damage (40% or less feeding damage and/or 100% mortality)” value ([1]; sprayed at 10 ppm) was ≤ 40%, the “control efficacy: feeding damage (40% or less feeding damage and/or 100% mortality)” value ([1]; sprayed at 50 ppm) was ≤ 40% and the “control efficacy: mortality” value ([2]; sprayed at 10 ppm) was ≥ 80%. For the same compound, the “control efficacy: mortality” value ([2]; sprayed at 50 ppm) was ≥ 80%, the “control efficacy: feeding damage (40% or less feeding damage and/or 100% mortality)” value ([3]; sprayed at 10 ppm) was ≤ 40% and the “control efficacy: feeding damage (40% or less feeding damage and/or 100% mortality)” value ([3]; sprayed at 50 ppm) was ≤ 40%. The “control efficacy: plant damage (30% or less plant damage and/or 100% mortality)” value ([4]; sprayed at 250 ppm) was ≤ 30%.

For `Cc1cccn2c(=O)c(-c3cccc(-c4ccc(C(F)(F)F)cc4Cl)c3)c([O-])[n+](Cc3cnc(Cl)s3)c12` [Compound 191], the “control efficacy: feeding damage (40% or less feeding damage and/or 100% mortality)” value ([1]; sprayed at 10 ppm) was ≤ 40%, the “control efficacy: feeding damage (40% or less feeding damage and/or 100% mortality)” value ([1]; sprayed at 50 ppm) was ≤ 40% and the “control efficacy: mortality” value ([2]; sprayed at 10 ppm) was ≥ 80%. The “control efficacy: mortality” value ([2]; sprayed at 50 ppm) was ≥ 80%, the “control efficacy: feeding damage (40% or less feeding damage and/or 100% mortality)” value ([3]; sprayed at 10 ppm) was ≤ 40% and the “control efficacy: feeding damage (40% or less feeding damage and/or 100% mortality)” value ([3]; sprayed at 50 ppm) was ≤ 40%. For the same compound, the “control efficacy: plant damage (30% or less plant damage and/or 100% mortality)” value ([4]; sprayed at 50 ppm) was ≤ 30%.

In the case of `Cc1cc(Cl)ccc1-c1cccc(-c2c([O-])[n+](Cc3cnc(Cl)s3)c3c(C)cccn3c2=O)c1` [Compound 199], the “control efficacy: feeding damage (40% or less feeding damage and/or 100% mortality)” value ([1]; sprayed at 10 ppm) is reported as ≤ 40%, the “control efficacy: feeding damage (40% or less feeding damage and/or 100% mortality)” value ([1]; sprayed at 50 ppm) is reported as ≤ 40% and the “control efficacy: mortality” value ([2]; sprayed at 50 ppm) is reported as ≥ 80%. For the same compound, the “control efficacy: feeding damage (40% or less feeding damage and/or 100% mortality)” value ([3]; sprayed at 10 ppm) was ≤ 40%, the “control efficacy: feeding damage (40% or less feeding damage and/or 100% mortality)” value ([3]; sprayed at 50 ppm) was ≤ 40% and the “control efficacy: plant damage (30% or less plant damage and/or 100% mortality)” value ([4]; sprayed at 50 ppm) was ≤ 30%.

`Cc1cccn2c(=O)c(-c3cccc(-c4ccc(Br)cc4F)c3)c([O-])[n+](Cc3cnc(Cl)s3)c12` [Compound 230] was tested, and the “control efficacy: feeding damage (40% or less feeding damage and/or 100% mortality)” value ([1]; sprayed at 10 ppm) was ≤ 40%, the “control efficacy: feeding damage (40% or less feeding damage and/or 100% mortality)” value ([1]; sprayed at 50 ppm) was ≤ 40% and the “control efficacy: mortality” value ([2]; sprayed at 50 ppm) was ≥ 80%. The “control efficacy: feeding damage (40% or less feeding damage and/or 100% mortality)” value ([3]; sprayed at 10 ppm) was ≤ 40%, the “control efficacy: feeding damage (40% or less feeding damage and/or 100% mortality)” value ([3]; sprayed at 50 ppm) was ≤ 40% and the “control efficacy: plant damage (30% or less plant damage and/or 100% mortality)” value ([4]; sprayed at 50 ppm) was ≤ 30%.

With `Cc1cc(C(F)(F)F)ccc1-c1cccc(-c2c([O-])[n+](Cc3cnc(Cl)s3)c3c(C)cccn3c2=O)c1` [Compound 272] the “control efficacy: feeding damage (40% or less feeding damage and/or 100% mortality)” value ([1]; sprayed at 10 ppm) was ≤ 40%, the “control efficacy: feeding damage (40% or less feeding damage and/or 100% mortality)” value ([1]; sprayed at 50 ppm) was ≤ 40% and the “control efficacy: mortality” value ([2]; sprayed at 10 ppm) was ≥ 80%. For the same compound, the “control efficacy: mortality” value ([2]; sprayed at 50 ppm) was ≥ 80%, the “control efficacy: feeding damage (40% or less feeding damage and/or 100% mortality)” value ([3]; sprayed at 10 ppm) was ≤ 40% and the “control efficacy: feeding damage (40% or less feeding damage and/or 100% mortality)” value ([3]; sprayed at 50 ppm) was ≤ 40%. The “control efficacy: plant damage (30% or less plant damage and/or 100% mortality)” value ([4]; sprayed at 10 ppm) was ≤ 30% and the “control efficacy: plant damage (30% or less plant damage and/or 100% mortality)” value ([4]; sprayed at 50 ppm) was ≤ 30%.

With `Cc1cccn2c(=O)c(-c3ccc(F)c(-c4ccc(C(F)(F)F)cc4Cl)c3)c([O-])[n+](Cc3cnc(Cl)s3)c12` [Compound 289] the “control efficacy: feeding damage (40% or less feeding damage and/or 100% mortality)” value ([1]; sprayed at 10 ppm) was ≤ 40%, the “control efficacy: feeding damage (40% or less feeding damage and/or 100% mortality)” value ([1]; sprayed at 50 ppm) was ≤ 40% and the “control efficacy: mortality” value ([2]; sprayed at 10 ppm) was ≥ 80%. The “control efficacy: mortality” value ([2]; sprayed at 50 ppm) was ≥ 80%, the “control efficacy: feeding damage (40% or less feeding damage and/or 100% mortality)” value ([3]; sprayed at 10 ppm) was ≤ 40% and the “control efficacy: feeding damage (40% or less feeding damage and/or 100% mortality)” value ([3]; sprayed at 50 ppm) was ≤ 40%. For the same compound, the “control efficacy: plant damage (30% or less plant damage and/or 100% mortality)” value ([4]; sprayed at 10 ppm) was ≤ 30% and the “control efficacy: plant damage (30% or less plant damage and/or 100% mortality)” value ([4]; sprayed at 50 ppm) was ≤ 30%.

For `Cc1cccn2c(=O)c(-c3cc(-c4ccc(C(F)(F)F)cc4)ccc3F)c([O-])[n+](Cc3cnc(Cl)s3)c12` [Compound 300], the “control efficacy: feeding damage (40% or less feeding damage and/or 100% mortality)” value ([1]; sprayed at 10 ppm) was ≤ 40%, the “control efficacy: feeding damage (40% or less feeding damage and/or 100% mortality)” value ([1]; sprayed at 50 ppm) was ≤ 40% and the “control efficacy: mortality” value ([2]; sprayed at 10 ppm) was ≥ 80%. For the same compound, the “control efficacy: mortality” value ([2]; sprayed at 50 ppm) was ≥ 80%, the “control efficacy: feeding damage (40% or less feeding damage and/or 100% mortality)” value ([3]; sprayed at 10 ppm) was ≤ 40% and the “control efficacy: feeding damage (40% or less feeding damage and/or 100% mortality)” value ([3]; sprayed at 50 ppm) was ≤ 40%. For the same compound, the “control efficacy: plant damage (30% or less plant damage and/or 100% mortality)” value ([4]; sprayed at 50 ppm) was ≤ 30%.

`COc1ccc(-c2c([O-])[n+](Cc3cnc(Cl)s3)c3c(C)cccn3c2=O)cc1-c1ccc(C(F)(F)F)cc1Cl` [Compound 321] was tested, and the “control efficacy: feeding damage (40% or less feeding damage and/or 100% mortality)” value ([1]; sprayed at 10 ppm) was ≤ 40%, the “control efficacy: mortality” value ([2]; sprayed at 50 ppm) was ≥ 80% and the “control efficacy: feeding damage (40% or less feeding damage and/or 100% mortality)” value ([3]; sprayed at 10 ppm) was ≤ 40%. For the same compound, the “control efficacy: plant damage (30% or less plant damage and/or 100% mortality)” value ([4]; sprayed at 50 ppm) was ≤ 30%.

`COc1ccc(-c2ccc(C(F)(F)F)cc2)cc1-c1c([O-])[n+](Cc2cnc(Cl)s2)c2c(C)cccn2c1=O` [Compound 322] was tested, and the “control efficacy: feeding damage (40% or less feeding damage and/or 100% mortality)” value ([1]; sprayed at 10 ppm) was ≤ 40%, the “control efficacy: mortality” value ([2]; sprayed at 10 ppm) was ≥ 80% and the “control efficacy: mortality” value ([2]; sprayed at 50 ppm) was ≥ 80%. For the same compound, the “control efficacy: feeding damage (40% or less feeding damage and/or 100% mortality)” value ([3]; sprayed at 10 ppm) was ≤ 40% and the “control efficacy: plant damage (30% or less plant damage and/or 100% mortality)” value ([4]; sprayed at 50 ppm) was ≤ 30%.

`Cc1cccn2c(=O)c(-c3cc(-c4ccc(C(F)(F)F)cc4Cl)ccc3F)c([O-])[n+](Cc3cnc(Cl)s3)c12` [Compound 343] was tested, and the “control efficacy: feeding damage (40% or less feeding damage and/or 100% mortality)” value ([1]; sprayed at 10 ppm) was ≤ 40%, the “control efficacy: mortality” value ([2]; sprayed at 10 ppm) was ≥ 80% and the “control efficacy: mortality” value ([2]; sprayed at 50 ppm) was ≥ 80%. For the same compound, the “control efficacy: feeding damage (40% or less feeding damage and/or 100% mortality)” value ([3]; sprayed at 10 ppm) was ≤ 40%, the “control efficacy: plant damage (30% or less plant damage and/or 100% mortality)” value ([4]; sprayed at 10 ppm) was ≤ 30% and the “control efficacy: plant damage (30% or less plant damage and/or 100% mortality)” value ([4]; sprayed at 50 ppm) was ≤ 30%. For the same compound, the “control efficacy: plant damage (30% or less plant damage and/or 100% mortality)” value ([4]; sprayed at 250 ppm) was ≤ 30%.

For `Cc1cccn2c(=O)c(-c3ccc(Cl)c(-c4ccc(C(F)(F)F)cc4Cl)c3)c([O-])[n+](Cc3cnc(Cl)s3)c12` [Compound 344], the “control efficacy: feeding damage (40% or less feeding damage and/or 100% mortality)” value ([1]; sprayed at 10 ppm) was ≤ 40%, the “control efficacy: mortality” value ([2]; sprayed at 10 ppm) was ≥ 80% and the “control efficacy: mortality” value ([2]; sprayed at 50 ppm) was ≥ 80%. The “control efficacy: feeding damage (40% or less feeding damage and/or 100% mortality)” value ([3]; sprayed at 10 ppm) was ≤ 40%, the “control efficacy: plant damage (30% or less plant damage and/or 100% mortality)” value ([4]; sprayed at 10 ppm) was ≤ 30% and the “control efficacy: plant damage (30% or less plant damage and/or 100% mortality)” value ([4]; sprayed at 50 ppm) was ≤ 30%. For the same compound, the “control efficacy: plant damage (30% or less plant damage and/or 100% mortality)” value ([4]; sprayed at 250 ppm) was ≤ 30%.

In the case of `Cc1cc(-c2ccc(C(F)(F)F)cc2Cl)cc(-c2c([O-])[n+](Cc3cnc(Cl)s3)c3c(C)cccn3c2=O)c1` [Compound 352], the “control efficacy: feeding damage (40% or less feeding damage and/or 100% mortality)” value ([1]; sprayed at 10 ppm) is reported as ≤ 40%, the “control efficacy: mortality” value ([2]; sprayed at 10 ppm) is reported as ≥ 80% and the “control efficacy: mortality” value ([2]; sprayed at 50 ppm) is reported as ≥ 80%. The “control efficacy: feeding damage (40% or less feeding damage and/or 100% mortality)” value ([3]; sprayed at 10 ppm) was ≤ 40% and the “control efficacy: plant damage (30% or less plant damage and/or 100% mortality)” value ([4]; sprayed at 50 ppm) was ≤ 30%.

With `Cc1cccn2c(=O)c(-c3ccnc(-c4ccc(C(F)(F)F)cc4Cl)c3)c([O-])[n+](Cc3cnc(Cl)s3)c12` [Compound 360] the “control efficacy: mortality” value ([2]; sprayed at 10 ppm) was ≥ 80%, the “control efficacy: mortality” value ([2]; sprayed at 50 ppm) was ≥ 80% and the “control efficacy: feeding damage (40% or less feeding damage and/or 100% mortality)” value ([3]; sprayed at 10 ppm) was ≤ 40%. For the same compound, the “control efficacy: plant damage (30% or less plant damage and/or 100% mortality)” value ([4]; sprayed at 50 ppm) was ≤ 30%.

`Cc1cc(Cl)ccc1-c1cc(-c2c([O-])[n+](Cc3cnc(Cl)s3)c3c(C)cccn3c2=O)ccc1F` [Compound 365] was tested, and the “control efficacy: feeding damage (40% or less feeding damage and/or 100% mortality)” value ([1]; sprayed at 10 ppm) was ≤ 40%, the “control efficacy: feeding damage (40% or less feeding damage and/or 100% mortality)” value ([3]; sprayed at 10 ppm) was ≤ 40% and the “control efficacy: plant damage (30% or less plant damage and/or 100% mortality)” value ([4]; sprayed at 50 ppm) was ≤ 30%.

`Cc1ccc(-c2c([O-])[n+](Cc3cnc(Cl)s3)c3c(C)cccn3c2=O)cc1-c1cc(OC(F)(F)F)ccc1F` [Compound 409] was tested, and the “control efficacy: feeding damage (40% or less feeding damage and/or 100% mortality)” value ([1]; sprayed at 10 ppm) was ≤ 40%, the “control efficacy: feeding damage (40% or less feeding damage and/or 100% mortality)” value ([3]; sprayed at 10 ppm) was ≤ 40% and the “control efficacy: plant damage (30% or less plant damage and/or 100% mortality)” value ([4]; sprayed at 50 ppm) was ≤ 30%.

With `Cc1ccc(-c2c([O-])[n+](Cc3cnc(Cl)s3)c3c(C)cccn3c2=O)cc1-c1ccc(Cl)cc1C(F)(F)F` [Compound 411] the “control efficacy: feeding damage (40% or less feeding damage and/or 100% mortality)” value ([1]; sprayed at 10 ppm) was ≤ 40%, the “control efficacy: feeding damage (40% or less feeding damage and/or 100% mortality)” value ([3]; sprayed at 10 ppm) was ≤ 40% and the “control efficacy: plant damage (30% or less plant damage and/or 100% mortality)” value ([4]; sprayed at 50 ppm) was ≤ 30%.
